Consider one substance from patent publication US20240132955A1, “BENIGN SCAR-FORMING CLEAVABLE LINKERS” (Ultima Genomics, Inc., priority 2021, published 2024).

The test system of the data set is nucleic acid template sequence with a homopolymeric sequence of variable length. The experiment in a line: Homopolymer detection linearity in sequencing with DPDS (FIG. 21A). The class given is biochemical.

Where no unit stands, none is given here, and values compare only within one read-out.

Take dipyridyl disulfide [DPDS]: the “difference between in and out of phase signal” value (“difference between in and out” below) (base C homopolymers) was determined as 0.95; the “difference between in and out” value (base G homopolymers) amounted to 0.63; the “difference between in and out” value (base T homopolymers) was determined as 0.82; the “difference between in and out” value (homopolymers of base A) came to 1.38.
